Data as given in PubChem BioAssay AID540256 (National Center for Advancing Translational Sciences (NCATS), 2011).
Values joined by “and” are separate entries in the source; they are usually repeats but may differ in a detail not shown here. Equal entries are not always repeated. In all, about 300,000 compounds went through this assay and about 3,700 (1.2%) were called active. The shares of active, inactive and inconclusive entries below differ from those in the screen. Calls follow the shape of the full dose curve; tested in HEK293 cells. A potency beside an inconclusive call is a rough fit, not a confirmed value.

Experiment: qHTS for Inhibitors of binding or entry into cells for Lassa Virus; also: nearly all actives have a fitted effect of over 50% in size
Details: Lassa virus pseudotype entry inhibition, cell reporter; activity change, negative = inhibition: at 37.9 µM (top of the series) unless noted
% is scaled to controls: 0 for no effect and ±100 for the full control effect; potency is read from the fitted curve at half-maximal effect.

For `CSc1ccc(CCNC(=O)c2ccc(-n3c(C)cc4c3CCCC4)cc2)cc1`, which Potency is on record?
Its Potency is inconclusive: 10 µM [inhibitor, partial curve, poor fit].

Which Potency does the source give for `Cc1csc(NC(=O)c2cccs2)n1` here?
Its Potency is inconclusive: 0.164 µM [activator, partial curve, poor fit].

Which Potency does the source give for `CCCNc1nc(N2CCCC2)nc(N2CCCC2)n1` here?
Its Potency is inconclusive: 12.6 µM [inhibitor, partial curve, poor fit].

With `CCOC(=O)N1CCN(c2ccc(S(=O)(=O)N3CCOCC3)cn2)CC1` as the molecule, how does the “activity change, negative = inhibition” value read?
Its value is inactive: 0.314%.

For `COc1ccccc1N=NC1=C(O)CC(C)(C)CC1=O`, which “activity change, negative = inhibition” value is on record?
Its value is inactive: 12.9%.

With `O=C(O)c1cccc(NC(=S)NC(=O)c2ccncc2)c1` as the molecule, how does the Potency read?
The Potency was inconclusive: 4.47 µM [inhibitor, partial curve, poor fit].

With `CCCCc1nc2cc(C(=O)N3CCCCC3CCO)ccc2o1` (stereo unspecified) as the molecule, how does the Potency read?
The Potency was inconclusive: 15.8 µM [activator, partial curve, poor fit].

With `c1ccc(CSc2ccc(-c3ccccn3)nn2)nc1` as the molecule, how does the Potency read?
Its Potency is inconclusive: 35.5 µM [inhibitor, single point].

For `COc1cc(C2=NOC(C(=O)N3CCCc4ccccc43)C2)cc(OC)c1OC` (stereo unspecified), which “activity change, negative = inhibition” value is on record?
Its value is inactive: -11.6%.

For `Cc1ccc2nc3c(cc(C#N)c(=O)n3-c3nnc(SCc4ccccc4Cl)s3)c(=O)n2c1`, which “activity change, negative = inhibition” value is on record?
Its value is inactive: 17.4% [at 46.1 µM].

With `O=C(Nc1nc(-c2ccccn2)cs1)c1cc(Cl)ccc1[N+](=O)[O-]` as the molecule, how does the Potency read?
Its Potency is active: 4.47 µM.

With `Cc1ccc(N2C(=O)CS(=O)C(c3ccccc3)C2=O)cc1C` (stereo unspecified) as the molecule, how does the “activity change, negative = inhibition” value read?
Its value is inactive: -2.2%.

For `CC(=O)N1CCc2c(sc(NC(=O)CCS(=O)(=O)c3ccc(C)cc3)c2C#N)C1`, which Potency is on record?
The Potency was inconclusive: 35.5 µM [inhibitor, single point].

For `O=C(OCc1cc(=O)n2nc(-c3cccs3)sc2n1)c1ccc(F)cc1`, which “activity change, negative = inhibition” value is on record?
The value was inactive: 0.298% [at 46.1 µM].

Which “activity change, negative = inhibition” value does the source give for `Cc1ccccc1-n1ncc(C(C)NC(=O)c2ccco2)c1C` (stereo unspecified) here?
The value was inactive: -5.92% [at 46.1 µM].

Which Potency does the source give for `CCN(c1ccccc1)c1nnc(NC(=O)Nc2ccc(C)cc2)s1` here?
The Potency was inconclusive: 6.31 µM [inhibitor, single point].

For `COc1ccc(-n2cnc3cc(NS(=O)(=O)c4ccccc4)ccc32)cc1`, which Potency is on record?
The Potency was inconclusive: 23.1 µM [inhibitor, partial curve, poor fit].

For `O=C(c1cc(COc2cccc(C(F)(F)F)c2)on1)N1CCc2ccccc2C1`, which Potency is on record?
The Potency was inconclusive: 12.6 µM [inhibitor, partial curve, poor fit].

Which Potency does the source give for `CN1/C(=C\C=[N+](C)c2ccccc2)C(C)(C)c2ccccc21` here?
The Potency was active: 4.61 µM.

With `Cc1cccc(Nc2nnc(SCC(=O)Nc3cccnc3Cl)s2)c1` as the molecule, how does the “activity change, negative = inhibition” value read?
Its value is inactive: 19.9%.

Which “activity change, negative = inhibition” value does the source give for `O=C(O)C1(C(=O)O)CCCC1` here?
Its value is inactive: -4.52% [at 46.1 µM].

With `CCOC(=O)C(=O)c1c(-c2ccccc2)nc2ccccn12` as the molecule, how does the Potency read?
Its Potency is inconclusive: 14.1 µM [inhibitor, single point].

With `Cc1ccccc1C(=NC(=O)c1ccccc1)c1ccccc1` as the molecule, how does the Potency read?
Its Potency is inconclusive: 15.8 µM [inhibitor, partial curve, poor fit].

Which “activity change, negative = inhibition” value does the source give for `COCCCN1C(=O)C2C(C(=O)Nc3cc(C)cc(C)c3)C3C=CC2(O3)C1C(=O)NC1CCCCC1` (stereo unspecified) here?
Its value is inactive: 1.76%.

For `O=Nc1c(O)n(Cc2ccc(Cl)c(Cl)c2)c2ccccc12`, which “activity change, negative = inhibition” value is on record?
Its value is inactive: 0.0262%.

With `COc1ccc(CCNC(=O)c2c(C)nn(-c3ccccc3)c2Cl)cc1` as the molecule, how does the Potency read?
Its Potency is inconclusive: 5.62 µM [inhibitor, full curve, poor fit].

With `CCC(C)NC(=O)CSc1ccc(S(=O)(=O)N(C)C2CCCCC2)cn1` (stereo unspecified) as the molecule, how does the Potency read?
Its Potency is active: 3.98 µM.

With `COCCNC(=O)c1cc(Br)ccc1Cl` as the molecule, how does the “activity change, negative = inhibition” value read?
Its value is inactive: -0.176%.

Which “activity change, negative = inhibition” value does the source give for `COc1ccccc1CNC(=O)c1sc2nc3n(c(=O)c2c1C)CCC3` here?
Its value is inactive: 9.31% [at 46.1 µM].

For `Cc1ccc(NC(=S)NNc2ncc(C(F)(F)F)cc2Cl)cc1`, which Potency is on record?
The Potency was inconclusive: 31.6 µM [inhibitor, single point].

With `CCC(=O)Nc1ccc(Br)cn1` as the molecule, how does the Potency read?
The Potency was inconclusive: 5.8 µM [activator, partial curve].

With `Cc1cc(Cl)n2c(nc3ccccc32)c1C#N` as the molecule, how does the Potency read?
The Potency was inconclusive: 10 µM [inhibitor, partial curve].

With `CCCNCC(O)COc1ccccc1C(=O)CCc1ccccc1` (stereo unspecified) as the molecule, how does the Potency read?
Its Potency is inconclusive: 29.1 µM [inhibitor, single point] and inconclusive: 1.16 µM [inhibitor, full curve].

For `Cc1ccc(CCNC(=O)c2ccc(CSCc3ccccc3C)o2)cc1`, which “activity change, negative = inhibition” value is on record?
Its value is inactive: -25.3% [at 46.1 µM].

Which Potency does the source give for `O=[N+]([O-])c1ccc(/C=N/N=C/c2ccc([N+](=O)[O-])o2)o1` here?
The Potency was inconclusive: 5.62 µM [inhibitor, partial curve, poor fit].

Which Potency does the source give for `Cc1cc(C)c(C)c(OCCNCc2ccccc2)c1` here?
Its Potency is inconclusive: 17.8 µM [inhibitor, partial curve, poor fit].

With `CCOC(=O)c1c(NC(=O)CN(CC)CC)sc2c1CCC2` as the molecule, how does the “activity change, negative = inhibition” value read?
The value was inactive: -26.8%.

Which Potency does the source give for `Cc1ccc(C(=O)N(C)c2ccc(OCC(=O)N3c4ccc(C)cc4C4CN(C)CCC43)cc2)cc1` (stereo unspecified) here?
Its Potency is inconclusive: 35.5 µM [inhibitor, partial curve, poor fit].

For `CCOC(=O)c1c(C)sc2c1N(C(=O)CN(CC)CC)c1cc(Cl)ccc1S2`, which Potency is on record?
Its Potency is inconclusive: 22.4 µM [inhibitor, single point].

With `O=C(Nc1ccc(Cl)c(Cl)c1)Nc1ccccc1C(=O)O` as the molecule, how does the Potency read?
The Potency was active: 3.55 µM.

With `CCC(CC)c1nnc(NC(=O)c2ccco2)s1` as the molecule, how does the “activity change, negative = inhibition” value read?
Its value is inactive: 12.6% [at 46.1 µM].

Which “activity change, negative = inhibition” value does the source give for `CC1=C(C(=O)Nc2ccc(C)cc2C)C(c2ccc(C)o2)NC(=S)N1` (stereo unspecified) here?
The value was inactive: 8.73%.

Which Potency does the source give for `CC1CCCN(CCCNC(=O)c2ccc3c(c2)N(Cc2ccc(F)cc2)C(=O)c2ccccc2S3=O)C1` (stereo unspecified) here?
Its Potency is inconclusive: 7.94 µM [inhibitor, partial curve].

With `Cc1ccc(C)c(N2CCN(C(=O)c3ccc4[nH]c(C)c(C)c4c3)CC2)c1` as the molecule, how does the Potency read?
Its Potency is inconclusive: 1.41 µM [inhibitor, full curve, poor fit].

For `CCOC(=O)c1cnc2c(OC)cccc2c1Nc1ccc2c(c1)OCCO2`, which “activity change, negative = inhibition” value is on record?
Its value is inactive: -27.8%.

Which “activity change, negative = inhibition” value does the source give for `O=C(CN1C(=O)c2ccccc2S1(=O)=O)NCc1ccccc1Cl` here?
Its value is inactive: 2.46%.

For `NC(Cc1ccccc1)C(=O)N1CCCCC1` (stereo unspecified), which “activity change, negative = inhibition” value is on record?
Its value is inactive: -0.786% [at 46.1 µM].

For `O=C(CN1C2CCCC1CC(NC(=O)C1CCCCC1)C2)Nc1ccccc1C(F)(F)F` (stereo unspecified), which Potency is on record?
Its Potency is inconclusive: 25.1 µM [inhibitor, single point].

Which Potency does the source give for `COCc1nnc(NC(=O)c2ccc(S(=O)(=O)N(C)Cc3ccccc3)cc2)o1` here?
Its Potency is inconclusive: 20 µM [inhibitor, partial curve, poor fit].

With `Cc1cc(C(=O)Nn2cnc3ccccc3c2=O)ccc1[N+](=O)[O-]` as the molecule, how does the Potency read?
The Potency was inconclusive: 35.5 µM [inhibitor, single point].

For `Oc1cccc(C(Nc2nccs2)c2ccc3cccnc3c2O)c1` (stereo unspecified), which Potency is on record?
The Potency was inconclusive: 4.47 µM [inhibitor, full curve, poor fit].

With `CC1(C)CC(=O)C(C=Nc2ccc(O)c(N=CC3=C(O)CC(C)(C)CC3=O)c2)=C(O)C1` as the molecule, how does the Potency read?
Its Potency is inconclusive: 6.51 µM [inhibitor, partial curve, poor fit].

For `Cc1[nH]c2ccc(C(=O)OC(C)C(=O)N(C)C3CCCCC3)cc2c1C` (stereo unspecified), which Potency is on record?
The Potency was inconclusive: 12.6 µM [inhibitor, partial curve].

For `CN1C(=O)C2(C(C#N)=C(N)N(c3ccc(Cl)cc3)C3=C2C(=O)CC(C)(C)C3)c2ccccc21` (stereo unspecified), which “activity change, negative = inhibition” value is on record?
Its value is inactive: -16.9%.

With `COc1ccc(Cc2nnc(N/N=C/c3ccccc3O)[nH]c2=O)cc1OC` as the molecule, how does the Potency read?
Its Potency is active: 3.98 µM.

Which Potency does the source give for `Cc1c(O)ccc(C(=O)COc2ccccc2F)c1O` here?
The Potency was inconclusive: 3.26 µM [activator, single point].

With `COc1ccc(C2Nc3ccccc3C(=O)N2Cc2ccccc2)cc1COc1ccccn1` (stereo unspecified) as the molecule, how does the Potency read?
The Potency was inconclusive: 3.26 µM [inhibitor, full curve, poor fit].

For `Cc1ccc(NC(=O)CNC(=O)OCc2ccccc2)cc1C`, which Potency is on record?
Its Potency is inconclusive: 5.62 µM [activator, single point].

For `Cc1ccc(S(=O)(=O)c2nc(Nc3ccccc3C#N)sc2Cl)cc1`, which “activity change, negative = inhibition” value is on record?
Its value is inactive: -2.96%.

For `CCn1c(SCc2ccccc2F)nc(=O)c2c(C(=O)OC)cc(C3CC3)nc21`, which Potency is on record?
Its Potency is inconclusive: 35.5 µM [inhibitor, single point].

For `CCOC(=O)c1sc2ccccc2c1S(=O)(=O)N1CCN(c2ccccc2)CC1`, which Potency is on record?
Its Potency is inconclusive: 11.2 µM [inhibitor, partial curve, poor fit].

Which “activity change, negative = inhibition” value does the source give for `CCCCOC(=O)n1c(=O)oc2ccccc21` here?
The value was inactive: 18.2%.

Which Potency does the source give for `COc1cccc(/C=C/c2ccc3ccccc3n2)c1OC(C)=O` here?
The Potency was inconclusive: 1.58 µM [inhibitor, full curve, poor fit].

Which Potency does the source give for `COCCCn1c(O)c(/C=C2\N=C(C#N)C(=Nc3ccc(C)cc3)O2)sc1=S` here?
The Potency was inconclusive: 35.5 µM [inhibitor, single point].

With `O=c1c([N+](=O)[O-])cccn1Cc1ccc(F)cc1Cl` as the molecule, how does the Potency read?
The Potency was inconclusive: 25.1 µM [inhibitor, partial curve, poor fit].

Which “activity change, negative = inhibition” value does the source give for `O=C(CSc1nc(-c2cccs2)nc2cc(=O)[nH]n12)Nc1ccc(F)cc1` here?
The value was inactive: 6.06% [at 46.1 µM].

Which Potency does the source give for `CCOc1cc(NC(=S)NCCOC)c(OCC)cc1NC(=O)c1cccs1` here?
The Potency was inconclusive: 35.5 µM [activator, single point].

Which Potency does the source give for `CCCCCn1c(=O)c(C(=O)Nc2cc(C)ccn2)c(O)c2ccccc21` here?
The Potency was inconclusive: 4.47 µM [activator, partial curve, poor fit].

For `Cc1cccc(C(=O)Nc2ccccc2SCC2CSc3nc4ccccc4c(=O)n32)c1` (stereo unspecified), which Potency is on record?
The Potency was active: 6.31 µM.

With `CCC(C)N(C(=O)COC(=O)c1ccc(=O)n(Cc2ccccc2)n1)C1CCS(=O)(=O)C1` (stereo unspecified) as the molecule, how does the Potency read?
Its Potency is inconclusive: 3.98 µM [inhibitor, single point].

For `COc1ccc(NC(=O)c2cc(-c3ccccc3O)no2)cc1`, which Potency is on record?
Its Potency is inconclusive: 35.5 µM [inhibitor, partial curve, poor fit].
